Measurements taken from PubChem BioAssay AID2685 (National Center for Advancing Translational Sciences (NCATS), 2010).
Some of the results follow. Further columns of the screen follow, without active or inactive calls. The list favours compounds with an active or inconclusive main result. The note in brackets gives the kind of curve behind each potency; many fits are weak.

Assay: qHTS Assay for Lipid Storage Modulators in Drosophila S3 Cells;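 on cell number change: cells counted by Cell Tracker Red CMTPX staining in the red channel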
Details: BODIPY lipid droplet fluorescence, 18-24 h; for cell number change: measured here: cell count max response, cells fed with added oleic acid
Procedure, shortened: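 Drosophila S3 cells loaded with oleic acid (400 uM, as added) and compounds at several concentrations; lipid droplets imaged by 488-nm laser-scanning cytometry, 500–530 nm intensity and object ratio to cell channel. Percent activity normalized to 20 uM Triacsin C.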

[1] = measured here: cell number channel AC50, cells fed with added oleic acid
[2] = measured here: lipid fluorescence (Fed channel) AC50, cells fed with added oleic acid

Structure (SMILES)	cell number change [%]	AC50 [1]	AC50 [2]
CC1CCCC(NC(=S)Nc2ccc(SC(F)F)cc2)C1C (centres undefined)	-43.7	29.1 µM [falling, single point]	3.66 µM [rising, partial curve]
O=C(NCc1ccccc1Cl)c1ccc(NC2=NC3CS(=O)(=O)CC3S2)cc1 (centres undefined)	2.88	–	0.00517 µM [rising, full curve, poor fit]
CCN(CC(=O)NCc1ccncc1)S(=O)(=O)c1ccc(OC)cc1	8.82	–	29.1 µM [rising, single point]
CCOC(=O)c1cccc(N2C(=O)Nc3ccccc3N2O)c1	14.8	–	0.092 µM [falling, single point]
CCOc1cc2c(cc1OC)C(c1cccc([N+](=O)[O-])c1)NCC2 (centres undefined)	11.5	–	–
CCOC(=O)c1c(C)c(C(=O)NCc2ccc3c(c2)OCO3)c(C)n1C	–	–	32.6 µM [rising, single point]
COc1cccc2c1NC(C(=O)O)C1CC=CC21 (centres undefined)	-40.4	5.8 µM [falling, partial curve, poor fit]	1.3 µM [falling, full curve]
Cc1cc(-c2ccccc2)c2ccc(NC(=O)C(C)(C)C)nc2n1	-6.93	–	29.1 µM [falling, single point]
CN1CCN(C(=O)Nc2ccc([N+](=O)[O-])cc2)CC1	-21.7	–	0.13 µM [falling, full curve]
CC1CC(C)CN(C(=O)C2CCN(S(=O)(=O)c3cccs3)CC2)C1 (centres undefined)	15.2	–	29.1 µM [falling, single point]
COc1ccc(S(=O)(=O)NCCc2c[nH]c3ccc(Cl)cc23)cc1	–	–	29.1 µM [falling, single point]
O=C(NCCCN1CCCC1=O)c1ccc(NS(=O)(=O)c2cccc([N+](=O)[O-])c2)cc1	-40.5	1.64 µM [falling, full curve, poor fit]	–
O=C(c1ccc(F)cc1)C1CCN(CCn2c(=S)[nH]c3ccccc3c2=O)CC1	2.13	–	0.058 µM [rising, full curve, poor fit]
O=C(OCCN1C(=O)c2ccccc2C1=O)C1CC(O)CN1S(=O)(=O)c1ccc(Cl)cc1 (centres undefined)	19.2	–	0.00517 µM [rising, full curve, poor fit]
Cc1ccc(-c2csc3ncnc(N4CCN(S(=O)(=O)c5cccs5)CC4)c23)cc1	31.5	14.6 µM [rising, partial curve, poor fit]	–
CCNC(=O)COC(=O)/C=C/c1cccs1	-1.78	0.366 µM [falling, full curve, poor fit]	–
COc1ccc(C2CC(c3cccs3)=NN2c2ccccc2)cc1 (centres undefined)	-30.2	20.6 µM [falling, single point]	29.1 µM [falling, single point]
COc1ccc(N2CCN(C(=O)CCS(=O)(=O)c3ccc(C)cc3)CC2)cc1	–	–	11.6 µM [rising, partial curve]
COc1cccc(NC(=O)COC(=O)c2cc(=O)c3ccccc3o2)c1	-3.02	–	–
O=C(N/N=C/c1cc([N+](=O)[O-])ccc1O)c1cccc2cc[nH]c12	-20.8	–	23.1 µM [falling, partial curve, poor fit]
O=C(Nc1cccnc1)c1cc2nc(C3CC3)cc(C(F)(F)F)n2n1	8.8	–	13 µM [rising, partial curve, poor fit]
CC12CN(NC(=O)c3ccc(Cl)cc3)C3(C#N)CC1CCC23C (centres undefined)	-51.4	29.1 µM [falling, single point]	7.31 µM [rising, partial curve]

Structure (SMILES)	cell number change [%]	AC50 [1]	AC50 [2]
O=C(N/N=C/c1cc2c(cc1Cl)OCO2)c1ccncc1	18.9	–	29.1 µM [rising, single point]
Cc1cc(=O)[nH]c(SCC(=O)Nc2ccc3c(c2)CCC3)c1C#N	2.5	0.103 µM [rising, full curve, poor fit]	–
O=C(COc1ccc(Cl)cc1Cl)NC(=S)Nc1ccc(CN2CCOCC2)cc1	-30.6	–	–
CC(C)c1ccc(NC(=O)CSc2nc3ncccc3[nH]2)cc1	-21.2	–	29.1 µM [falling, partial curve, poor fit]
CCN(CC)CCOC(c1ccccc1)c1ccc(C)cc1 (centres undefined)	-6.59	–	0.461 µM [falling, single point]
CO/N=C(\c1nonc1N)N1CCN(c2ccc([N+](=O)[O-])cc2Cl)CC1	-12.3	–	–
CC(=O)c1ccc(NC(=O)CSc2nc3[nH]ncc3c(=O)[nH]2)cc1	-2.69	–	–
N#CC1(c2ccccc2)CCC(=NO)CC1 (centres undefined)	2.64	–	–
N#Cc1ccc(OCC(=O)NC2=NCCS2)cc1	8.82	–	–
O=C(COc1ccccc1)Nc1nnc(S(=O)(=O)N2CCCCC2)s1	5.01	–	29.1 µM [falling, single point]
C(=N/n1c2ccccc2c2ccccc21)/c1ccco1	-22.3	–	16.4 µM [falling, partial curve, poor fit]
CN1CCN(CCCCOc2ccc(Br)cc2)CC1	51.2	29.1 µM [rising, single point]	–
O=C(/C=C/c1ccccc1)NC1CC2CCCC(C1)N2Cc1ccccc1 (centres undefined)	1.27	–	0.0058 µM [rising, full curve, poor fit]
O=C(NCc1cccnc1)Nc1cccc(NC(=O)NCc2cccnc2)c1F	34	32.6 µM [rising, single point]	29.1 µM [rising, single point]
COc1cc(NS(=O)(=O)c2ccc(NC(=O)COc3cccc(C)c3)cc2)nc(OC)n1	10.3	0.146 µM [falling, full curve, poor fit]	–
O=C(COC(=O)CNC(=O)c1ccccc1F)Nc1ncc(Cl)cc1Cl	4.81	–	0.731 µM [rising, single point]
COc1cc(C(=O)NCc2nnc(SCC(=O)Nc3cccc(C)c3)o2)cc(OC)c1OC	19.6	–	–
COC(=O)NNS(=O)(=O)c1ccc(C)cc1	30.2	4.11 µM [rising, full curve]	0.259 µM [rising, full curve, poor fit]
O=C(Nc1ccccc1N1CCOCC1)c1cc(Br)c(Br)s1	1.83	–	–
O=C(N/N=C/c1ccncc1)c1cc(C2CC2)nc2ccccc12	22.7	–	–
Cn1ncc2c(Nc3ccc(Br)cc3)nc(Nc3ccc(Br)cc3)nc21	-55.7	23.1 µM [falling, single point]	18.4 µM [falling, single point]
O=C(N/C(=C\c1cccnc1)C(=O)N1CCCCC1)c1cccc(Br)c1	–	–	0.231 µM [falling, partial curve, poor fit]

Single records, as listed above. Order of values: cell number change [%]	AC50 [1]	AC50 [2]
`CC(=O)c1ccc(NC(=O)CSc2nc3[nH]ncc3c(=O)[nH]2)cc1` is listed with -2.69	–	–
`COC(=O)NNS(=O)(=O)c1ccc(C)cc1` is listed with 30.2	4.11 µM [rising, full curve]	0.259 µM [rising, full curve, poor fit]
`O=C(N/N=C/c1ccncc1)c1cc(C2CC2)nc2ccccc12` is listed with 22.7	–	–

(more compounds)

Structure (SMILES)	cell number change [%]	AC50 [1]	AC50 [2]
O=C(CN1CCSCC1)N/N=C/c1ccc(F)cc1	-72.5	29.1 µM [falling, single point]	–
CC[N+](C)(CC)CCC[n+]1c(-c2ccccc2)c2cc(N)ccc2c2ccc(N)cc21	13.1	–	–
O=C(NC1CCCCC1)c1ccc(-c2ccc(Cl)cc2)o1	–	2.31 µM [rising, partial curve]	–
CN1CCN(C(=S)Nc2cccc(S(=O)(=O)N(C)C)c2)CC1	21.7	–	0.0058 µM [rising, full curve, poor fit]
COc1cc(CNCc2ccccn2)ccc1OCc1ccccc1Cl	33.3	29.1 µM [rising, single point]	–
O=C(NC1=NCCS1)c1ccc(N2CCCC2=O)cc1	-44.9	0.82 µM [falling, full curve]	–
CCC(=O)Nc1ccc(C(=O)CSc2nc3ccccc3[nH]2)cc1	-26.2	0.206 µM [falling, full curve]	–
CCOC(=O)C(=O)Nc1cc(Cl)ccc1C	-50	29.1 µM [falling, single point]	–
CC(NC(=O)CNC(=O)c1ccco1)c1ccc(S(N)(=O)=O)cc1 (centres undefined)	-21.9	–	–
CCOC(=O)c1c(S(=O)(=O)NC2CCN(C(=O)OCC)CC2)c(C)n(C)c1C	10.6	–	10.3 µM [rising, partial curve, poor fit]
Cc1cc(C(F)(F)F)nn1C(=O)c1cccnc1Cl	-7.05	–	16.4 µM [falling, partial curve]
CCOc1ccc(-c2c(C(=O)N/N=C(\C)c3ccncc3)nnn2-c2nonc2N)cc1	2.99	–	–
Nc1nc(SCc2ccc3c(c2)OCO3)n[nH]1	68.9	23.1 µM [rising, partial curve]	0.326 µM [rising, full curve]
C=CCOc1cccc(C2c3c(oc4ccc(F)cc4c3=O)C(=O)N2CCCN2CCOCC2)c1 (centres undefined)	-1.04	–	0.13 µM [falling, full curve, poor fit]
O=C1CN(C(=O)OCc2ccccc2)c2ccccc2N1	51	25.9 µM [rising, single point]	–
O=C(NCCc1nc2ccccc2[nH]1)c1cccc(Br)c1	-31.5	11.2 µM [falling, partial curve]	12.6 µM [falling, single point]
CCN(CC(=O)Nc1ccccc1C(F)(F)F)C(=O)COc1cccc2c1OC(C)(C)C2	10.5	–	–
Nc1c(C(=O)OCC(=O)Nc2ccc(Cl)cc2[N+](=O)[O-])[nH]c(=O)[nH]c1=O	15.5	–	32.6 µM [rising, single point]
CN(C)/N=C/c1ccc(/C=N/NC(N)=S)o1	-52	32.6 µM [falling, partial curve, poor fit]	–
COCCn1c(SCC(=O)c2ccc(Cl)cc2)nnc1C(C)C	-13.6	0.103 µM [falling, full curve, poor fit]	6.51 µM [falling, single point]
